We go through eleven molecules from the supplement of paper PMC4604168 (melanoma cell lines).

The other results are listed elsewhere or left out. Many values rest on one well or one pass, so single values are uncertain.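 Cells were imaged in 1,536-well plates, and nuclei stained with an antibody against cleaved PARP were counted against all DNA-stained nuclei to give the apoptosis fraction. Screening doses were chosen to leave most cells alive, and resting and induced cleaved-PARP levels differ strongly between cell lines.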

Common to all, as to experiment: cleaved PARP positive nuclei fraction relative to DMSO control; melanoma cells; higher = more apoptosis
Common to all, as to details: library dose: low library concentration; 72 h

Test [1] relates to COLO792.
In test [2] the test system is COLO800.
Test [3] concerns COLO829.
Test [4] has as its system G361.
In test [5] the test system is IPC-298.
Test [6] concerns IST-MEL1.
The subject of test [7] is LB2518-MEL.
Test [8] deals with LOXIMVI.
The test system of test [9] is MEL-HO.

For the molecule `N.N.[Cl][Pt][Cl]` [cisplatin] + COc1cc2c(Oc3ccc4[nH]c(C)cc4c3F)ncnc2cc1OCCCN1CCCC1 [cediranib] (first compound 1.6 µM, partner dose 0.4 µM), the “cleaved PARP positive nuclei fraction” value in test [1] amounted to 156%; in test [2], 70.6%; in [3], 81.9%; in test [4] it was 79.3%; in test [5], 86%; in [6] it was 34%. In addition, the “cleaved PARP positive nuclei fraction” value in test [7] came to 82.6%; in test [8] it was 62.7%; in test [9], 59.8%.
Take `C[C@]12O[C@H](C[C@]1(O)CO)n1c3ccccc3c3c4c(c5c6ccccc6n2c5c31)CNC4=O` [Lestaurtinib] + Cn1cncc1[C@@](N)(c1ccc(Cl)cc1)c1ccc2c(c1)c(-c1cccc(Cl)c1)cc(=O)n2C [tipifarnib] (first compound 0.004 µM, partner dose 0.01 µM): the “cleaved PARP positive nuclei fraction” value in test [1] came out at 126%; in test [2], 62.5%; in [3], 60.8%; in test [4], 61.9%; in test [5] it was 244%; in [6], 100%. Moreover, the “cleaved PARP positive nuclei fraction” value in [7] was 117%; in test [8], 42.4%; in test [9], 68.8%.
For `N.N.[Cl][Pt][Cl]` [cisplatin] + O=C(Nc1cccc(Cl)c1)Nc1ncc(CCNc2ncnc3ccsc23)s1 [SNS314] (first compound 1.6 µM, partner dose 0.0008 µM), the “cleaved PARP positive nuclei fraction” value is 221% in [1]; 123% in [2]; 17.9% in test [3]; 98.5% in test [4]; 46.4% in test [5]; 68.9% in test [6]. Further, the “cleaved PARP positive nuclei fraction” value in test [7] turned out to be 91.4%; in test [8], 56.5%; in [9], 62.1%.
In the case of `Cn1cc(C2=C(c3cn(C4CCN(Cc5ccccn5)CC4)c4ccccc34)C(=O)NC2=O)c2ccccc21` [Enzastaurin] + C=CCn1c(=O)c2cnc(Nc3ccc(N4CCN(C)CC4)cc3)nc2n1-c1cccc(C(C)(C)O)n1 [MK1775] (first compound 0.8 µM, partner dose 0.02 µM), the “cleaved PARP positive nuclei fraction” value worked out at 14.2% in test [1]; 54.7% in [2]; 67.8% in test [3]; 104% in [4]; 19.8% in [5]; 96.6% in test [6]. The “cleaved PARP positive nuclei fraction” value in test [7] amounted to 46.5%; in test [8] it was 103%; in test [9] it was 65%.
For the molecule `C[As](C)SC[C@H](NC(=O)CC[C@H](N)C(=O)O)C(=O)NCC(=O)O` [Darinaparsin] + C=CCn1c(=O)c2cnc(Nc3ccc(N4CCN(C)CC4)cc3)nc2n1-c1cccc(C(C)(C)O)n1 [MK1775] (first compound 0.4 µM, partner dose 0.02 µM), the “cleaved PARP positive nuclei fraction” value is 106% in test [1]; 40.6% in test [2]; 117% in [3]; 107% in test [4]; 190% in test [5]; 67.2% in [6]. In addition, the “cleaved PARP positive nuclei fraction” value in test [7] was found to be 79.7%; in test [8] it was 181%; in test [9], 133%.
For the molecule `C[C@]12O[C@H](C[C@]1(O)CO)n1c3ccccc3c3c4c(c5c6ccccc6n2c5c31)CNC4=O` [Lestaurtinib] + C=CCn1c(=O)c2cnc(Nc3ccc(N4CCN(C)CC4)cc3)nc2n1-c1cccc(C(C)(C)O)n1 [MK1775] (first compound 0.004 µM, partner dose 0.02 µM), the “cleaved PARP positive nuclei fraction” value in test [1] was found to be 113%; in test [2], 78.6%; in test [3], 83.2%; in [4] it was 125%; in test [5], 63.9%; in test [6] it was 91.6%. Moreover, the “cleaved PARP positive nuclei fraction” value in test [7] was 58.3%; in test [8], 60.9%; in test [9], 113%.
As for `C[As](C)SC[C@H](NC(=O)CC[C@H](N)C(=O)O)C(=O)NCC(=O)O` [Darinaparsin] + CN(NC(=O)CC(=O)NN(C)C(=S)c1ccccc1)C(=S)c1ccccc1 [STA4783] (first compound 0.4 µM, partner dose 0.006 µM), the “cleaved PARP positive nuclei fraction” value was found to be 131% in test [1]; 47.7% in test [2]; 88.3% in test [3]; 184% in test [4]; 355% in [5]; 248% in test [6]. For the same molecule, the results for the “cleaved PARP positive nuclei fraction” value in test [7], in test [8] and in [9] were 252%, 94.3% and 67.2%, respectively.
As for `Cn1cc(C2=C(c3cn(C4CCN(Cc5ccccn5)CC4)c4ccccc34)C(=O)NC2=O)c2ccccc21` [Enzastaurin] + CO[C@@H]1[C@H](N(C)C(=O)c2ccccc2)C[C@H]2O[C@]1(C)n1c3ccccc3c3c4c(c5c6ccccc6n2c5c31)C(=O)NC4 [Midostaurin] (first compound 0.8 µM, partner dose 0.08 µM), the “cleaved PARP positive nuclei fraction” value in [1] came out at 58%; in test [2], 146%; in test [3] it was 157%; in test [4], 36.2%; in test [5] it was 98.4%; in test [6] it was 37.6%. Besides, the “cleaved PARP positive nuclei fraction” value worked out at 138% in test [7], 845% in [8] and 70.8% in [9].
In the case of `C[As](C)SC[C@H](NC(=O)CC[C@H](N)C(=O)O)C(=O)NCC(=O)O` [Darinaparsin] + CC1(C)NC(=O)N(c2ccc([N+](=O)[O-])c(C(F)(F)F)c2)C1=O [nilutamide] (first compound 0.4 µM, partner dose 1 µM), the “cleaved PARP positive nuclei fraction” value amounted to 44.4% in test [1]; 158% in test [2]; 187% in [3]; 175% in test [4]; 21.8% in [5]; 151% in test [6]. Further, the “cleaved PARP positive nuclei fraction” value in test [7] is 101%; in [8], 129%; in [9] it was 50.2%.
Regarding `Cn1cc(C2=C(c3cn(C4CCN(Cc5ccccn5)CC4)c4ccccc34)C(=O)NC2=O)c2ccccc21` [Enzastaurin] + COc1cc(Nc2ncc(F)c(Nc3ccc4c(n3)NC(=O)C(C)(C)O4)n2)cc(OC)c1OC [Tamatinib] (first compound 0.8 µM, partner dose 0.4 µM), the “cleaved PARP positive nuclei fraction” value in test [1] was 117%; in test [2] it was 42.6%; in test [3], 174%; in test [4] it was 96.6%; in [5], 59%; in test [6] it was 53.6%. The figures for the “cleaved PARP positive nuclei fraction” value in test [7], in test [8] and in [9] were 58.6%, 65.1% and 68.8%, respectively.
As for `C[C@]12O[C@H](C[C@]1(O)CO)n1c3ccccc3c3c4c(c5c6ccccc6n2c5c31)CNC4=O` [Lestaurtinib] + COc1cc2c(Oc3ccc4[nH]c(C)cc4c3F)ncnc2cc1OCCCN1CCCC1 [cediranib] (first compound 0.004 µM, partner dose 0.4 µM), the “cleaved PARP positive nuclei fraction” value in test [1] stood at 150%; in test [2] it was 38.8%; in test [3], 191%; in test [4] it was 90.1%; in [5], 126%; in test [6], 50.8%. The “cleaved PARP positive nuclei fraction” value in [7] was determined as 85.7%; in test [8] it was 16.4%; in test [9], 59.7%.
